Data on one molecule can be found in patent US8912202B2, “N-(benzimimdazol-2-yl)-cyclopropane carboxamides as lysophosphatidic acid antagonists” (Merck Patent GmbH, priority 2011, dated 2014).

By UniProt entry, the sequences of proteins in these tests, tags left out.
UniProt Q9HBW0, whole entry: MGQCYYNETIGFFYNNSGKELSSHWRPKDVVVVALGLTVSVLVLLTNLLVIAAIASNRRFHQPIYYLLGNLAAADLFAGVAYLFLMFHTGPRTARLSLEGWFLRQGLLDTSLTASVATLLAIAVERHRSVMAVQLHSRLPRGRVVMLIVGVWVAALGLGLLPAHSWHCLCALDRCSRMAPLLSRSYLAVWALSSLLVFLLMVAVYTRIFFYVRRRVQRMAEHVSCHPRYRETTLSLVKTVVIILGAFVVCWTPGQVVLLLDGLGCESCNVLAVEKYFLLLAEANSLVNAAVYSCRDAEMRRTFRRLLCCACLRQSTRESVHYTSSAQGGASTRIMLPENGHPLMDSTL

What is called IC50 is the concentration that inhibits the measured activity by half.

The match of structure and compound is tentative.

In this test the target is LPA2R (Homo sapiens, UniProt Q9HBW0). The test is described as follows: LPA2R-Calciumflux assay (FLIPR, intracellular calcium mobilisation after LPA). The conditions noted are these: read-out: IC50 (LPA2R); U2OS cells recombinant expressing LPA2R; antagonism of LPA-induced calcium flux; racemate of the two trans enantiomers unless marked enantiomer. An excerpt: The assay detects intra cellular calcium which is generated by cells upon activation of the LPA2 receptor by its ligand LPA. This transient calcium mobilization can be monitored using a commercial calcium detection kit (e.g. from Molecular Devices). The main component of such a kit is a dye, which becomes fluorescent when calcium is present—a transient fluorescence signal after addition of a ligand to a test well are the result. Readers like the FLIPR (Molecular Devices) can be used to monitor such transient “Ca-flux” signals.
The signals are calculated according to peak maximum minus base line.
Compounds which are antagonists of LPA lead to a decreased mobilisation of intracellular calcium and thus to a lower signal. The assay is performed in microplates (384 wells per plate).
LPA2R-Calciumflux Assay Protocol
The assay is run according to the following procedure:
50 uL seed cells (10000 cells/well in DMEM buffer)
• Incubate 24 h at 37° C., 10% CO2 • aspirate medium 50 uL add calcium dye 1×HBSS/HEPES buffer • incubate 1 h at 37° C. (“loading”) • equilibrate 10 min at RT 5 uL add compounds in HEPES buffer • shake 10 sec. at 1000 rpm • incubate 15 min at RT 20 uL add LPA (in the FLIPR Tetra) in Krebs-buffer/BSA & measurement
The cells are seeded in DMEM buffer (DMEM, 10% FCS, 10 mM HEPES, 1% Pen/Strep). […]
Background: Calcium flux is commonly read through the fluorescence of an indicator in the cells.

With `O=C(Nc1nc2cc(Cl)cnc2[nH]1)[C@@H]1C[C@H]1c1ccccc1` (relative stereo), the IC50 was under 10 nM.
